From PMC3672107 come the findings set out here.

By UniProt entry, the sequences of proteins in these tests, tags left out. Residues count along the entry.
UniProt P56817, residues 46-501: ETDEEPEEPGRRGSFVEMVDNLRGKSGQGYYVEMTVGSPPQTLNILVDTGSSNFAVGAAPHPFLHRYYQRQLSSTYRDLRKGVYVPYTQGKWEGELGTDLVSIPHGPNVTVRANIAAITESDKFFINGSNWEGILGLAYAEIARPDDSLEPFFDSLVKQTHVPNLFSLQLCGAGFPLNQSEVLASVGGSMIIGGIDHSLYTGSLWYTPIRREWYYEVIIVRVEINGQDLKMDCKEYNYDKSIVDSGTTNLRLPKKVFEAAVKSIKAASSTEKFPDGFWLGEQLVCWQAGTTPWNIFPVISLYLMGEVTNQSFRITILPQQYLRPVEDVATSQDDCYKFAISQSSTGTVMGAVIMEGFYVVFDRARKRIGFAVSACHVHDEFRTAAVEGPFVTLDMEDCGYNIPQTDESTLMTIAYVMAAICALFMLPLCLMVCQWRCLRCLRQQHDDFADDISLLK
UniProt P05067, residues 18-770: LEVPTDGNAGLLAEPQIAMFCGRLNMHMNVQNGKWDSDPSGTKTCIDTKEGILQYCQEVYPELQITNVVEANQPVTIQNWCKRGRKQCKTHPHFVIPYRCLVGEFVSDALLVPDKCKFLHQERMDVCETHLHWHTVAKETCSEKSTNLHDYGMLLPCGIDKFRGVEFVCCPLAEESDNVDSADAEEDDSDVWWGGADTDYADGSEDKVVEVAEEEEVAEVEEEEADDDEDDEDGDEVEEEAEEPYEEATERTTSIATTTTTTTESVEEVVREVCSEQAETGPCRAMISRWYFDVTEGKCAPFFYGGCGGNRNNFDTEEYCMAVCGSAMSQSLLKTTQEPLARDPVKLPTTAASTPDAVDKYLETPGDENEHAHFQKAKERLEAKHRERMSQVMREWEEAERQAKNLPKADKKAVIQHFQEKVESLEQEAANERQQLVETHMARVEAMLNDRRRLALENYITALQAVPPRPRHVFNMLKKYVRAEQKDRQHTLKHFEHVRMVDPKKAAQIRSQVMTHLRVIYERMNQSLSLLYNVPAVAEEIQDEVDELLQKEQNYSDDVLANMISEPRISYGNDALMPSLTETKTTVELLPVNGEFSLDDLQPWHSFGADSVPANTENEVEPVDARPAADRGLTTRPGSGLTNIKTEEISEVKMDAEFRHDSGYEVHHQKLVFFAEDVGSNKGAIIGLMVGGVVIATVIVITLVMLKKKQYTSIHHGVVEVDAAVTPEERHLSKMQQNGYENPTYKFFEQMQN

Results are given in words; binding and its absence hold for the method and conditions named. Binding seen in cells or lysates may run through a third protein. Some results given as binding are weak or reduced against the parent protein; the word gives no strength. Where a sequence is shown, tags or fusion partners need not be part of it.

For one experiment, the target named is BACE1 with a GFP tag (UniProt P56817). Nature of the experiment: co-IP; HEK293T cells transfected with LRRTM3-V5 and BACE1-GFP; lysed in IP buffer (150mM NaCl, 50mM Tris pH 7.5, 0.1% Triton); 1 ug of anti-V5, anti-GFP or CT20 antibody on Dynabeads Protein G, 30 minutes with the lysate, extensively washed; Western blot of the eluted immunocomplexes.
The target in experiment [1] is Amyloid precursor protein (APP), endogenous in HEK293T cells (human (endogenous in HEK293T)) (UniProt P05067). The description is as above.

B1: Leucine rich repeat transmembrane protein 3 (LRRTM3) with a V5 tag (protein, UniProt Q86VH5-1 31-581)
chain: ERGCPKGCRCEGKMVYCESQKLQEIPSSISAGCLGLSLRYNSLQKLKYNQFKGLNQLTWLYLDHNHISNIDENAFNGIRRLKELILSSNRISYFLNNTFRPVTNLRNLDLSYNQLHSLGSEQFRGLRKLLSLHLRSNSLRTIPVRIFQDCRNLELLDLGYNRIRSLARNVFAGMIRLKELHLEHNQFSKLNLALFPRLVSLQNLYLQWNKISVIGQTMSWTWSSLQRLDLSGNEIEAFSGPSVFQCVPNLQRLNLDSNKLTFIGQEILDSWISLNDISLAGNIWECSRNICSLVNWLKSFKGLRENTIICASPKELQGVNVIDAVKNYSICGKSTTERFDLARALPKPTFKPKLPRPKHESKPPLPPTVGATEPGPETDADAEHISFHKIIAGSVALFLSVLVILLVIYVSWKRYPASMKQLQQRSLMRRHRKKKRQSLKQMTPSTQEFYVDYKPTNTETSEMLLNGTGPCTYNKSGSRECEIPLSMNVSTFLAYDQPTISYCGVHHELLSHKSFETNAQEDTMETHLETELDLSTITTAGRISDHKQQLA
As for B1, the binding result (with BACE1 with a GFP tag; in experiment [1]) was “binds” in each case.
